In US6624140B1, “Synthetic peptides with antimicrobial and endotoxin neutralizing properties for management of the sepsis syndrome” (Academisch Ziekenhuis Bij de Universiteit van Amsterdam …, priority 1997, dated 2003):
Where two headings read alike, the source gives them in different places. At least one structure is not confirmed: it was looked up by name or label, or the drawing left a doubt. No end group written: not given here.

System: Escherichia coli 018:K1:H7 Bort
Type: cell-based
Conditions: 5 μg/ml (2 μM), 10^6 CFU/ml citrated whole blood

## GKWKLFKKAFKKFLKILAC-OH [BP2, Gly-Lys-Trp-Lys-Leu-Phe-Lys-Lys-Ala-Phe-Lys-Lys-Phe-Leu-Lys-Ile-Leu-Ala-Cys]
After 1 h at 37° C.
  reduction of viable bacteria: > 99%
Within 20 minutes at 37° C.
  reduction of viable bacteria: 95%
